Paper PMC8816719

Amino acid sequences for entries named in this document (tags omitted). A change or cut given only in a name is not applied to a line headed by its entry. Residues count along the entry.
UniProt O95994, residues 21-175: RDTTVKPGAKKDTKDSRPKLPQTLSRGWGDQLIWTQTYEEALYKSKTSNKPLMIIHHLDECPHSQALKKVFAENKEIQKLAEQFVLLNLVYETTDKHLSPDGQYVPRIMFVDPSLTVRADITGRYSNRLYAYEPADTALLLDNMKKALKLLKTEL
UniProt Q8NBS9, residues 33-432: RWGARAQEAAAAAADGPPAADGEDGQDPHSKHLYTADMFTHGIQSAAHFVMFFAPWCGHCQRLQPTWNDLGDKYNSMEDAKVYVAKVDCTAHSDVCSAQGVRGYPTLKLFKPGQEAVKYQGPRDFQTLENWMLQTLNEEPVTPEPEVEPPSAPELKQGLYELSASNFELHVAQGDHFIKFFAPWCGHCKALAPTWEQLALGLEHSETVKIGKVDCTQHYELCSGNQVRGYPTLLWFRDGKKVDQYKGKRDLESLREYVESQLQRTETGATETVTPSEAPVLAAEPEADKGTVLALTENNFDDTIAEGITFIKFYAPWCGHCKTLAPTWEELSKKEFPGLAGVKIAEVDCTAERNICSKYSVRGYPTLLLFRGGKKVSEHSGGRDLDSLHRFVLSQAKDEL
UniProt O75947: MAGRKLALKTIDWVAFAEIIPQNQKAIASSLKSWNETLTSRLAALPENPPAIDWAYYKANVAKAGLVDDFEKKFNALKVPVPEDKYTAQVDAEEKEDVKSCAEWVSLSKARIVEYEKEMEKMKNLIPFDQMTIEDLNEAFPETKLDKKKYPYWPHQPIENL
UniProt Q9NYU2, residues 43-1555: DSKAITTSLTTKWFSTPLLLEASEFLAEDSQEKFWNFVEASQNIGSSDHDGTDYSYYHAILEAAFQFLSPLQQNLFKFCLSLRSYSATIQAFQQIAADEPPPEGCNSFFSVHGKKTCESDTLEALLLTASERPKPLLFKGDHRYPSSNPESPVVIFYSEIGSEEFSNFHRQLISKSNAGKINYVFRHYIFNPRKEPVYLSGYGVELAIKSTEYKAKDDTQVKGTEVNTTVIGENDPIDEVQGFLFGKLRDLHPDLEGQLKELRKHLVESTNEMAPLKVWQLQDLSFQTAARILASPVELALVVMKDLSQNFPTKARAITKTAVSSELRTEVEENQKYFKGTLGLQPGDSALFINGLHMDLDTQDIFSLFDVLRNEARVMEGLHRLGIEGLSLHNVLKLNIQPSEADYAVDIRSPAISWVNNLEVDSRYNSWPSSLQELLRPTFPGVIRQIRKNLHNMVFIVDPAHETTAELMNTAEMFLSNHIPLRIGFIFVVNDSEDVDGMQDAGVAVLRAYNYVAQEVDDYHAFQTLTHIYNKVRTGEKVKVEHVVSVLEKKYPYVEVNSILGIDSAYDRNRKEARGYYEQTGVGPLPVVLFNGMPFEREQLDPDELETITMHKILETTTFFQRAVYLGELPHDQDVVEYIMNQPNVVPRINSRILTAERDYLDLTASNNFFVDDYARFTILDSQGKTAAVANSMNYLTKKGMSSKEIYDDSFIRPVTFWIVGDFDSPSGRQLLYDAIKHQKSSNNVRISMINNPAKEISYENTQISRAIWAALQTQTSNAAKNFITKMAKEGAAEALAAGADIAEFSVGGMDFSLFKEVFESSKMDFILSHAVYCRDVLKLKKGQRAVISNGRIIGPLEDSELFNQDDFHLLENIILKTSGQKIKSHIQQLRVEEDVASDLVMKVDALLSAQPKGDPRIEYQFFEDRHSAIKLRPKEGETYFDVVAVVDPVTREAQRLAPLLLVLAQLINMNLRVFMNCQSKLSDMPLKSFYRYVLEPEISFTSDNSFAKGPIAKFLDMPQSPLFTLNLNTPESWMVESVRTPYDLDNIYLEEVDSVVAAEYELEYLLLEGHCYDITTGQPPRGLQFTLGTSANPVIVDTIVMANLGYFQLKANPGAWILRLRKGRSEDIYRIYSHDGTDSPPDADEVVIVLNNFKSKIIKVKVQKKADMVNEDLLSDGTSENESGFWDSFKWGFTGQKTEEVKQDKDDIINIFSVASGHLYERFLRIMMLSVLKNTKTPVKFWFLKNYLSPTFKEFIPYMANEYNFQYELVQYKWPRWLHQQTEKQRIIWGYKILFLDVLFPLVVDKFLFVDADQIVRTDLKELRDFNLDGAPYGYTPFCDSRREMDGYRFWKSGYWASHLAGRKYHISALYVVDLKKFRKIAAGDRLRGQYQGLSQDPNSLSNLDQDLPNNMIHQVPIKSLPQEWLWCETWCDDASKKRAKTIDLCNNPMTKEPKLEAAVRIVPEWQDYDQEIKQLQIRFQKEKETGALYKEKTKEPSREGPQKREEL
UniProt P27824, residues 21-592: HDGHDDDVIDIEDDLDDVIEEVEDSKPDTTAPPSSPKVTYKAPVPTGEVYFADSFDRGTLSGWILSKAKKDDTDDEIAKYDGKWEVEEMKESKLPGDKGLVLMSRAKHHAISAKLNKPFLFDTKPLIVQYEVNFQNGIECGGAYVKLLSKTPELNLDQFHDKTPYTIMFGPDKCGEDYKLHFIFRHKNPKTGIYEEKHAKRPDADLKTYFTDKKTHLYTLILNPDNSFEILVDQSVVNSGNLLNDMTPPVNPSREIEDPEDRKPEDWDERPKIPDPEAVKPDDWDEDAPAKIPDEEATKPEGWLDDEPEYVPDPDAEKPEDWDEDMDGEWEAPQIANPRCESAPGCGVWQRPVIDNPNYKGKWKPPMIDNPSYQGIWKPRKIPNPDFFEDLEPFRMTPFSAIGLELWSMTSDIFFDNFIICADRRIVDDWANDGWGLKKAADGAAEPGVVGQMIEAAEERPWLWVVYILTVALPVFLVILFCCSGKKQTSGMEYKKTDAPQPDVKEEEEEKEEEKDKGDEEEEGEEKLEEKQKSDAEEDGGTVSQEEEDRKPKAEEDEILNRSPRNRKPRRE
UniProt P23284, residues 34-216: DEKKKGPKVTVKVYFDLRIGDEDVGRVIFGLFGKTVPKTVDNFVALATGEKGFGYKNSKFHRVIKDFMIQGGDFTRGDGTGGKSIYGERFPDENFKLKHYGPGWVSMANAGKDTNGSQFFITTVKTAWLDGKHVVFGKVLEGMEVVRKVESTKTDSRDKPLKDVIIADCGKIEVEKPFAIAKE
UniProt P07355: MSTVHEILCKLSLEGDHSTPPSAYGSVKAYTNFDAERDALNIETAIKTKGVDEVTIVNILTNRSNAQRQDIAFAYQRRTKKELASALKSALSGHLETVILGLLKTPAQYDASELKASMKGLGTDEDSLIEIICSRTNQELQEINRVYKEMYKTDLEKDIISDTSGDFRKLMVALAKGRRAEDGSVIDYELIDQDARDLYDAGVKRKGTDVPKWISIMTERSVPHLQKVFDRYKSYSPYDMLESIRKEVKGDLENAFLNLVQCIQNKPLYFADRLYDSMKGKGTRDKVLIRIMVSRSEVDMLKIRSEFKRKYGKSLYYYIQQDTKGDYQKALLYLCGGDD
UniProt P07237, residues 18-508: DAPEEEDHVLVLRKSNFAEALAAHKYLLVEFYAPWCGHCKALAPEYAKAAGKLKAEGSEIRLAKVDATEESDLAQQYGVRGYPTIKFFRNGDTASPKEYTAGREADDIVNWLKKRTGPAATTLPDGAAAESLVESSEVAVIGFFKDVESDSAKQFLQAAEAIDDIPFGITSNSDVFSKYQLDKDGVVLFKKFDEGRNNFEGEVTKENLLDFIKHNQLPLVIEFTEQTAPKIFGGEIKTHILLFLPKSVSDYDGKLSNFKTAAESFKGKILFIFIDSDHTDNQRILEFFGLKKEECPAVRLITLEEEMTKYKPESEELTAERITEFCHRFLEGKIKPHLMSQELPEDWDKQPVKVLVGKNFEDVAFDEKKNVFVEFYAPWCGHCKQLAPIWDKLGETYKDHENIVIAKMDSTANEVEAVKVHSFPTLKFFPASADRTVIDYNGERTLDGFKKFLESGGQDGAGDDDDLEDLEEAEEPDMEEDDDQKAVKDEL
UniProt P12270: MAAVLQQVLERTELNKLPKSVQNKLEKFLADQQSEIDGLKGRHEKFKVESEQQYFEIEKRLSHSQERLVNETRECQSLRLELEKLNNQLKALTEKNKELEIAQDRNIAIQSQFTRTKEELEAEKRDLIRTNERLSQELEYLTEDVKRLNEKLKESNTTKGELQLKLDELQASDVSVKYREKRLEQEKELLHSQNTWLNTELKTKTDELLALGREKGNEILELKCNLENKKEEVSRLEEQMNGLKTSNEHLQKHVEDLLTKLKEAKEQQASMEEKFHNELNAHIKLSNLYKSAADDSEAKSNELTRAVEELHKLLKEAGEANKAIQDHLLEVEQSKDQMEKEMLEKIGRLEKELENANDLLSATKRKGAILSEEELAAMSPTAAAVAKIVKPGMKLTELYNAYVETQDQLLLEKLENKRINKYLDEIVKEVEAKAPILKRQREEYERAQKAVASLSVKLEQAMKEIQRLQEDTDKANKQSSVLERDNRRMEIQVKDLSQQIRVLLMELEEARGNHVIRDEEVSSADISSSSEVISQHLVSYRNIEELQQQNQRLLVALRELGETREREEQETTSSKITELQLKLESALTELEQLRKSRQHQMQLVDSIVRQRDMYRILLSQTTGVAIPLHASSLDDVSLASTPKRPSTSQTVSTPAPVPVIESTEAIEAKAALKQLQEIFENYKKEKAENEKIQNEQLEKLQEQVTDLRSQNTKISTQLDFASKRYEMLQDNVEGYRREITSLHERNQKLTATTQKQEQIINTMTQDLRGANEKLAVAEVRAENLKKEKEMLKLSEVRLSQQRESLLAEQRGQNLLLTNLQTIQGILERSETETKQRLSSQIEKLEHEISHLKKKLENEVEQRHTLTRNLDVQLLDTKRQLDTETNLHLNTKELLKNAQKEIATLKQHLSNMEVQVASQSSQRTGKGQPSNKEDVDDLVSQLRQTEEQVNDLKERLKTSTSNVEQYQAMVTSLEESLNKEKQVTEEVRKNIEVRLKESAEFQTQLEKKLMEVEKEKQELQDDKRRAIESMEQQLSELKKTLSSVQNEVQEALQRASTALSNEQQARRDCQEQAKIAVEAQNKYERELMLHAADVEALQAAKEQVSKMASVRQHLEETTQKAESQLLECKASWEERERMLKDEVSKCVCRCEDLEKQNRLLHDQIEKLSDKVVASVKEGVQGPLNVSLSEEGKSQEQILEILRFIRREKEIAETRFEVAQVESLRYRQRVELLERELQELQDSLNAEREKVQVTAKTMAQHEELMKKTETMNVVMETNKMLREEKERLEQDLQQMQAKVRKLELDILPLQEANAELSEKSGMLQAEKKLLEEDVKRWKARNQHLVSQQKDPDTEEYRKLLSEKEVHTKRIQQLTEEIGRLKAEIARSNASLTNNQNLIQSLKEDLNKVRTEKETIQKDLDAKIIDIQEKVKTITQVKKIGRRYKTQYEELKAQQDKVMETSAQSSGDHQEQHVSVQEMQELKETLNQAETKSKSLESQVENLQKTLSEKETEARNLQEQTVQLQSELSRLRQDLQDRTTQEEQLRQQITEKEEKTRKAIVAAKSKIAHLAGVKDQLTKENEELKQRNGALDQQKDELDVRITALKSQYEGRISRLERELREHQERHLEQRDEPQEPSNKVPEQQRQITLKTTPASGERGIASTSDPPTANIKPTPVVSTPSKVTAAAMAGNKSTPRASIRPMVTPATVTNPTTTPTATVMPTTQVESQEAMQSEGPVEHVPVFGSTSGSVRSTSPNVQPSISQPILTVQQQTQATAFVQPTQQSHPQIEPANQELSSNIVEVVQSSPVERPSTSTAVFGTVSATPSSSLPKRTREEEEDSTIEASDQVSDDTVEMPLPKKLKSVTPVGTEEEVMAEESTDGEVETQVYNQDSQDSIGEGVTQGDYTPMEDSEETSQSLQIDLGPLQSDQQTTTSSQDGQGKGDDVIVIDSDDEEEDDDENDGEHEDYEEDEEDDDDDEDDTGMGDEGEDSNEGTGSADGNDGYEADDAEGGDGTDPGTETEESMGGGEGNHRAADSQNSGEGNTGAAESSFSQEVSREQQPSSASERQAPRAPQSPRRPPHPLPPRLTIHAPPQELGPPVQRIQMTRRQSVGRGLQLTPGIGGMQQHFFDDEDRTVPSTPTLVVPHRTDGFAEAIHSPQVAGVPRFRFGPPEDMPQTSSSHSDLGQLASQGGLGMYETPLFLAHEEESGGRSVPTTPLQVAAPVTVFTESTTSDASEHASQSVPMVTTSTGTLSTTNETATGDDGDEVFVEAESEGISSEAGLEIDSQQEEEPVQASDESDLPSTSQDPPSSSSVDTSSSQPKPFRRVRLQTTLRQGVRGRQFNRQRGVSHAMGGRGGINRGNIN

B1: LMAN1 (protein, UniProt P49257 31-510)
chain: DGVGGDPAVALPHRRFEYKYSFKGPHLVQSDGTVPFWAHAGNAIPSSDQIRVAPSLKSQRGSVWTKTKAAFENWEVEVTFRVTGRGRIGADGLAIWYAENQGLEGPVFGSADLWNGVGIFFDSFDNDGKKNNPAIVIIGNNGQIHYDHQNDGASQALASCQRDFRNKPYPVRAKITYYQNTLTVMINNGFTPDKNDYEFCAKVENMIIPAQGHFGISAATGGLADDHDVLSFLTFQLTEPGKEPPTPDKEISEKEKEKYQEEFEHFQQELDKKKEEFQKGHPDLQGQPAEEIFESVGDRELRQVFEGQNRIHLEIKQLNRQLDMILDEQRRYVSSLTEEISKRGAGMPGQHGQITQQELDTVVKTQHEILRQVNEMKNSMSETVRLVSGMQHPGSAGGVYETTQHFIDIKEHLHIVKRDIDNLVQRNMPSNEKPKCPELPPFPSCLSTVHFIIFVVVQTVLFIGYIMYRSQQEAAAKKFF
B2: PDIA4 (protein, UniProt P13667 21-645)
chain: VAGAEGPDEDSSNRENAIEDEEEEEEEDDDEEEDDLEVKEENGVLVLNDANFDNFVADKDTVLLEFYAPWCGHCKQFAPEYEKIANILKDKDPPIPVAKIDATSASVLASRFDVSGYPTIKILKKGQAVDYEGSRTQEEIVAKVREVSQPDWTPPPEVTLVLTKENFDEVVNDADIILVEFYAPWCGHCKKLAPEYEKAAKELSKRSPPIPLAKVDATAETDLAKRFDVSGYPTLKIFRKGRPYDYNGPREKYGIVDYMIEQSGPPSKEILTLKQVQEFLKDGDDVIIIGVFKGESDPAYQQYQDAANNLREDYKFHHTFSTEIAKFLKVSQGQLVVMQPEKFQSKYEPRSHMMDVQGSTQDSAIKDFVLKYALPLVGHRKVSNDAKRYTRRPLVVVYYSVDFSFDYRAATQFWRSKVLEVAKDFPEYTFAIADEEDYAGEVKDLGLSESGEDVNAAILDESGKKFAMEPEEFDSDTLREFVTAFKKGKLKPVIKSQPVPKNNKGPVKVVVGKTFDSIVMDPKKDVLIEFYAPWCGHCKQLEPVYNSLAKKYKGQKGLVIAKMDATANDVPSDRYKVEGFPTIYFAPSGDKKNPVKFEGGDRDLEHLSKFIEEHATKLSRTKEEL
B3: TPP1 (protein, UniProt O14773 196-563)
chain: LHLGVTPSVIRKRYNLTSQDVGSGTSNNSQACAQFLEQYFHDSDLAQFMRLFGGNFAHQASVARVVGQQGRGRAGIEASLDVQYLMSAGANISTWVYSSPGRHEGQEPFLQWLMLLSNESALPHVHTVSYGDDEDSLSSAYIQRVNTELMKAAARGLTLLFASGDSGAGCWSVSGRHQFRPTFPASSPYVTTVGGTSFQEPFLITNEIVDYISGGGFSNVFPRPSYQEEAVTKFLSSSPHLPPSSYFNASGRAYPDVAALSDGYWVVSNRVPIPWVSGTSASTPVFGGILSLINEHRILSGRPPLGFLNPRLYQQHGAGLFDVTRGCHESCLDEEVEGQGFCSGPGWDPVTGWGTPNFPALLKTLLNP

molecular target: Anterior gradient 2 (AGR2), endogenous (human (endogenous in T47D, A549)) (UniProt O95994); experiment: affinity purification with mass spectrometry; T47D cells crosslinked in vivo with 0.6 mM DSP (control: no DSP); 400 ug lysate incubated overnight at 4 °C with biotinylated E7 peptide on streptavidin-agarose to capture endogenous AGR2 with its partners (F4 peptide as control); elution with 0.1 M glycine pH 2.5; LC-MS/MS with label-free quantification

binding, binds:
Endoplasmic reticulum protein 29 (from UniProt P30040 33-261)
thioredoxin domain–containing protein 5 (from UniProt Q8NBS9 33-432)
ATP5H (from UniProt O75947 1-161)
UGGG1 (from UniProt Q9NYU2 43-1555)
Calnexin (from UniProt P27824 21-592)
Peptidylprolyl isomerase B (cyclophilin B) (from UniProt P23284 34-216)
Annexin A2 (from UniProt P07355 1-339)
Prolyl 4-hydroxylase, beta polypeptide (PDIA1) (from UniProt P07237 18-508)
TPR (from UniProt P12270 1-2363)
ATP synthase, H+ transporting, mitochondrial F1 complex, beta polypeptide (from UniProt P06576 48-529)
B1
B2
B3

No constants are given. Whether binding was seen depends on the method and setting. Binding seen in cells or lysates may run through a third protein. Here binding means that the protein was enriched with, or labelled near, the bait; the list need not be complete.
